These are yes or no findings as the source states them, for the method shown. Some results given as binding are weak or reduced against the parent protein; the word gives no strength. One block for each substance: values may come before it.
Key:
[1] = target: T1, 17β-hydroxysteroid dehydrogenase type 10 of human cerebrospinal fluid (human (endogenous in cerebrospinal fluid)) (UniProt Q99714); test: ELISA; semi-quantitative sandwich ELISA on human cerebrospinal fluid (controls, MCI-others, MCI-AD, ADD, FTLD); capture by anti-17β-HSD10 antibody, detection by anti-cypD antibody; values in percent of internal standards
T1 sequence: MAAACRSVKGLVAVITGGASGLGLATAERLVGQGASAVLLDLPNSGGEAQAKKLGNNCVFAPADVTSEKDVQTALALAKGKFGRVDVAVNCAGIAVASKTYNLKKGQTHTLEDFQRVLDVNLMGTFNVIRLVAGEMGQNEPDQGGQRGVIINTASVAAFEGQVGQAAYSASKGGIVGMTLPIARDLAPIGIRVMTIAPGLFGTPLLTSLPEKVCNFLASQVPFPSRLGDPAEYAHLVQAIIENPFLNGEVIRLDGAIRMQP

Protein sequences, listed by entry. Tags and fused reporters are not part of them. Residues count along the entry.
UniProt P30405, residues 30-207: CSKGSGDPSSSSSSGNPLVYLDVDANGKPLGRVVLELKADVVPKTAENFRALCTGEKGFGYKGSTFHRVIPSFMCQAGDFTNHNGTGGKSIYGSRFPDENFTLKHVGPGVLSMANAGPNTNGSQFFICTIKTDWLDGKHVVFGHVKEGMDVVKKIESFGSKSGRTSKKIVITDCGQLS
UniProt P29117, residues 30-206: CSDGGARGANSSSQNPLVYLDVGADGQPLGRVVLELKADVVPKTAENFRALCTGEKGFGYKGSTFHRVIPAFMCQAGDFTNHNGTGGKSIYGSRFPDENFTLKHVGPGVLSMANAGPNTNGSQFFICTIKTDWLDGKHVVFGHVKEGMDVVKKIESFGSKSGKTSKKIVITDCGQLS

[2] = target: T2, 17β-hydroxysteroid dehydrogenase type 10 of rat brain mitochondria (rat (endogenous in brain mitochondria)) (UniProt O70351); test: ELISA; semi-quantitative sandwich ELISA on rat brain mitochondrial fraction (10 WT and 10 Tg McGill-R-Thy1-APP rats) with n-dodecyl β-D-maltoside; capture by anti-17β-HSD10 antibody, detection by anti-cypD or anti-Aβ 13-28 antibody; values in percent of internal standards
T2 sequence: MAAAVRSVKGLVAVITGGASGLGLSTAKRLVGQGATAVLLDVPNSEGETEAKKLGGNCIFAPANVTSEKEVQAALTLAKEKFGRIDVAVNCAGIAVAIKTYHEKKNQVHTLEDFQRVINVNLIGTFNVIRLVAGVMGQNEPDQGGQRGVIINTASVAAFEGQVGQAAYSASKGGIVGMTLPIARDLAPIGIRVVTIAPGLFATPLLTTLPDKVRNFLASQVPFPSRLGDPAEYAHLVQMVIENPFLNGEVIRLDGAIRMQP

[3] = target: human full length recombinant 17β-hydroxysteroid dehydrogenase type 10 protein (His tag) (human) (UniProt Q99714); test: co-IP; mix of the two recombinant proteins, 20 µg/ml each in PBS, 2 h at room temperature; precipitated with anti-17β-HSD10 or anti-cypD antibody and Protein A-sepharose; immunoblot for the other protein; both purified

- binding [1]: binds
Substance: cyclophilin D of human cerebrospinal fluid (from UniProt P30405 30-207)

- binding [2]: binds
Substance: cyclophilin D of rat brain mitochondria (from UniProt P29117 30-206)

- binding [3]: binds
Substance: human full length cyclophilin D protein (His tag) (from UniProt P30405 30-207) (enzyme)
